Counter-ions that a name gives are not always drawn. Some of the results follow. Repeats in this data set agree poorly, so a single value says little.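 Human kidney-derived cells stably carry a construct in which eight TEAD-binding elements drive luciferase, measured by luminescence in a drug-repurposing library screen. A hit is any compound whose signal exceeds the plate mean by more than five robust Z scores.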
Tested on: HEK293A TEAD-LUC reporter
Assay: TEAD-luciferase reporter activity (YAP activation), robust Z score vs plate; higher = stronger YAP/TEAD activation
Conditions: 24 h

SMILES | TEAD-luciferase reporter activity (compound concentration: 200 nM) | TEAD-luciferase reporter activity (compound concentration: 2 uM) | TEAD-luciferase reporter activity (compound concentration: 10 uM)
C[C@H]1SC[C@@H](C(=O)N[C@H](Cc2c[nH]cn2)C(=O)N2CCC[C@H]2C(N)=O)NC1=O | inactive: -1.12 | inactive: 0.298 | inactive: 1.59
CC(C)NC(=O)c1no[n+]([O-])c1C(=O)NC(C)C [ipramidil] | inactive: -2.75 | inactive: -0.432 | inactive: 1.6
Nc1c(C(=O)NCc2ccc([N+](=O)[O-])cc2)ncn1[C@@H]1O[C@H](COP(=O)(O)O)[C@@H](O)[C@H]1O | active: 5.51 | inactive: 1.88 | inactive: -0.974
CN(CCOc1ccc(CC(OCC(F)(F)F)C(=O)O)cc1)c1nc2ccccc2o1 (stereo not given) | inactive: 0.0382 | inactive: 2.21 | inactive: 2.72
CC(CC1c2ccccc2CCc2ccccc21)CN(C)C (stereo not given) [Butriptyline hydrochloride] | inactive: 0.0482 | inactive: -1.37 | inactive: 0.461
Cc1csc(-c2nnc(Nc3ccc(Oc4ncccc4-c4ccnc(N)n4)cc3)c3ccccc23)c1 | inactive: -1.52 | inactive: -0.844 | inactive: -2.04
Cc1cccnc1NS(=O)(=O)c1ccc(/N=N/c2ccc(O)c(C(=O)O)c2)cc1 | inactive: -0.866 | inactive: 0.00741 | inactive: 1.14
Nc1nc(O)c2ncn(COC(CO)CO)c2n1 [ganciclovir] | inactive: -0.524 |  | inactive: -1.64
Nc1nc(O)c2ncn(COC(CO)CO)c2n1 [Ganciclovir sodium] |  | inactive: -1.41 | 
COc1ccc(C(=O)c2cn(C(C)C)c3ncnc(N)c23)cc1NC(=O)Nc1ccc(Cl)cc1Cl | inactive: -2.2 | inactive: -1.58 | inactive: 0.371
COc1cc2ncnc(Nc3cccc(Cl)c3F)c2cc1OC(=O)N1CCN(C)C[C@H]1C | inactive: -0.34 | inactive: 0.00782 | inactive: -0.44
Cc1cc(C)n(CCCCCSc2nc(-c3ccccc3)c(-c3ccccc3)[nH]2)n1 | inactive: 1.24 | inactive: -1.16 | inactive: -0.675
C[C@H](CN(c1ccccc1)S(=O)(=O)Cc1ccccc1)N1CCC(NC(=O)Cc2ccc(C#N)cc2)CC1 | inactive: -0.874 | inactive: -1.36 | inactive: 0.244
COc1ccc2c(c1)CC(C)N(CCc1ccc(N)cc1)CC2 (stereo not given) [Anilopam] | inactive: 0.606 | inactive: -0.397 | inactive: -0.467
C=C[C@@H]1C[C@]1(NC(=O)[C@@H]1C[C@H](Oc2cc(-c3ccccc3)nc3cc(OC)ccc23)CN1C(=O)[C@@H](CC(=O)N1CCCCC1)C(C)(C)C)C(=O)NS(=O)(=O)C1CC1 | inactive: -0.2 | inactive: 0.15 | inactive: 1.63
CC(=O)Nc1ccccc1 | inactive: -0.389 | inactive: -1.8 | inactive: -0.715
Nc1cccc(-n2ccccc2=O)c1 | inactive: 2.42 | inactive: -0.931 | inactive: 2.65
CC1(COc2ccc(CC3SC(=O)NC3=O)cc2)CCCCC1 (stereo not given) [ciglitazone] | inactive: -0.56 | inactive: 1.1 | active: 7.42
Cc1ccc(C(=O)NC2CC2)cc1-n1ncc(C(=O)c2cccc(C#N)c2)c1N | inactive: 1.22 | inactive: -0.965 | inactive: -0.815
O=C(O)CCCC(=O)N1Cc2ccccc2CC2(CCCN2CC2CCCCC2)C1 (stereo not given) | inactive: -1.32 |  | inactive: 2.81
O=C(CCn1cnc2c(O)ncnc21)Nc1ccc(C(=O)O)cc1 [leteprinim potassium] | inactive: -1.81 | inactive: -0.397 | inactive: 2.06
CCCCOC(=O)[C@H](C)NP(=O)(Oc1cccc2ccccc12)OC(C)[C@H]1O[C@@H](n2ccc(=O)[nH]c2=O)[C@](C)(O)[C@@H]1O (stereo not given in full) | inactive: 1.52 | inactive: -0.612 | inactive: 2.14
O/N=C/c1cc[n+](COC[n+]2ccc(/C=N/O)cc2)cc1 [Obidoxime chloride] | inactive: -0.951 | inactive: 2.11 | inactive: 3.82
CCOc1ccc(N=Nc2ccc(N)cc2N)cc1 | inactive: 2.13 | inactive: -1.95 | inactive: -0.45
CS(=O)(=O)Nc1cccc(C(c2ccc(F)cc2)C(c2cccnc2)c2cccnc2)n1 (stereo not given) | inactive: 0.137 | inactive: 0.517 | inactive: 0.602
O=C1CC2(CCCC2)CC(=O)N1CCCCN1CCN(c2ncccn2)CC1 [buspirone] |  | inactive: 1.43 | 
O=C1CC2(CCCC2)CC(=O)N1CCCCN1CCN(c2ncccn2)CC1 [Buspar] | inactive: -0.604 |  | inactive: 0.078
O=C1NCc2ccccc2CC12CCCN2Cc1cc(O)cc(O)c1 (stereo not given) | inactive: 0.72 |  | active: 11.7

SMILES | TEAD-luciferase reporter activity (compound concentration: 200 nM) | TEAD-luciferase reporter activity (compound concentration: 2 uM) | TEAD-luciferase reporter activity (compound concentration: 10 uM)
COc1ccc2cc([C@H](C)C(=O)OCCCCO[N+](=O)[O-])ccc2c1 [Naproxcinod] | inactive: -1.99 | inactive: 0.673 | inactive: 2.16
CCc1c2c(nc3ccc(OC(=O)N4CCC(N5CCCCC5)CC4)cc13)-c1cc3c(c(=O)n1C2)COC(=O)C3(O)CC (stereo not given) | inactive: -1.57 |  | inactive: 0.638
CCc1c2c(nc3ccc(OC(=O)N4CCC(N5CCCCC5)CC4)cc13)-c1cc3c(c(=O)n1C2)COC(=O)C3(O)CC (stereo not given) [etirinotecan pegol] |  | inactive: 0.469 | 
CCC(=O)N1Cc2ccccc2CC2(CCCN2C)C1 (stereo not given) | inactive: 0.773 |  | inactive: -2.26
OCc1cncc(F)c1 [fluoronicotinyl alcohol] | inactive: -0.292 | inactive: -0.161 | inactive: -0.749
NC(=O)OC(CN1CCC(C(=O)c2ccc(F)cc2)CC1)c1ccccc1 (stereo not given) | inactive: -0.744 | inactive: -0.223 | inactive: -1.48
CC(C)c1nc(CN(C)C(=O)N[C@@H](CCN2CCOCC2)C(=O)N[C@H](CC[C@H](Cc2ccccc2)NC(=O)OCc2cncs2)Cc2ccccc2)cs1 [Cobicistat] |  | inactive: 2.05 | 
CC(C)c1nc(CN(C)C(=O)N[C@@H](CCN2CCOCC2)C(=O)N[C@H](CC[C@H](Cc2ccccc2)NC(=O)OCc2cncs2)Cc2ccccc2)cs1 | inactive: -0.996 |  | inactive: -1.05
CC(C)(C)O/N=C(/c1cc(Br)c(F)cc1O)c1c(O)ccc[n+]1[O-] | inactive: -2.07 | inactive: -1.17 | inactive: -0.649
CC(C)=CCOc1cc(NC(=S)c2cscn2)ccc1Cl | inactive: -0.516 | inactive: 1.36 | inactive: -0.834
O=C(NC1CCN(c2nc3ncccc3o2)CC1)c1ccc(C(F)(F)F)cc1 | inactive: -0.418 |  | inactive: 2.92
N#Cc1ccnc(N2C(=O)CC[C@H]2C(=O)N(c2cncc(F)c2)C(C(=O)NC2CC(F)(F)C2)c2ccccc2Cl)c1 (stereo not given in full) | inactive: -2.09 | inactive: -0.43 | inactive: 1.73
CCOC(=O)COc1ccc2c(c1)C[C@@H](NC[C@H](O)c1cccc(Cl)c1)CC2 [Amibegron hydrochloride] | inactive: -1.33 | inactive: -0.678 | inactive: 0.405
CC1OCC2(CCN(C)CC2)O1 (stereo not given) | inactive: -0.639 |  | inactive: 0.226
CCCC(=O)Nc1nnc(S(N)(=O)=O)s1 | inactive: -0.639 | inactive: -0.703 | inactive: -0.17
CN(CCCN1c2ccccc2CCc2ccccc21)CC(=O)c1ccc(Cl)cc1 [lofepramine] |  | inactive: -2.79 | 
CN(CCCN1c2ccccc2CCc2ccccc21)CC(=O)c1ccc(Cl)cc1 | inactive: -0.475 |  | inactive: -1.48
NC(=O)OCC(O)COc1ccc(Cl)cc1 (stereo not given) [Chlorphenesin carbamate] | inactive: 4.13 | inactive: -1.3 | inactive: 0.356
CCCN1CCC(c2nc3c(C(N)=O)cccc3[nH]2)CC1 | inactive: -0.878 | inactive: -1.66 | active: 8.09
CCN(CC)CCN(Cc1ccc(-c2ccc(C(F)(F)F)cc2)cc1)C(=O)Cn1cc(Cc2cnn(C)c2)c(=O)nc1SCc1ccc(F)cc1 | inactive: -1.36 | inactive: 0.662 | inactive: -0.345
[N-]=[N+]=NCC(=O)N[C@H](CO)[C@H](O)c1ccc([N+](=O)[O-])cc1 [Azidamfenicol] | inactive: 0.379 | inactive: 1.82 | inactive: 1.58
COc1cc(/C=C/C=C/C(=O)NCCN2CCC(OC(c3ccccc3)c3ccccc3)CC2)ccc1O | inactive: -1.93 | inactive: 0.586 | inactive: 2
CCc1ccc(C2=CC(C)(C)Sc3ccc(C#Cc4ccc(C(=O)O)cc4)cc32)cc1 | inactive: 1.27 | inactive: -0.945 | inactive: -0.51
COc1ccccc1N1CCN(CC(O)COc2ccc(-c3cc(C#N)c(=O)[nH]c3C)cc2)CC1 (stereo not given) | inactive: -0.513 | inactive: -0.945 | inactive: -1.16
CC(C)(Oc1ccc(Cl)cc1)C(=O)OCCSCCCCCCCCCCSCCOC(=O)C(C)(C)Oc1ccc(Cl)cc1 [Tiafibrate] | inactive: -0.351 | inactive: 1.58 | inactive: 0.743
CC(=O)OC1CCC2(C)C(CCC3(C)C2C(=O)C=C2C4CC(C)(C(=O)O)CCC4(C)CCC23C)C1(C)C (stereo not given) [acetoxolone aluminium salt] | inactive: 0.403 | inactive: -1.86 | inactive: 2.76
O=C(CN1C(=O)c2ccccc2C1=O)NC1CCN(Cc2ccccc2)CC1 | inactive: -2.34 | inactive: -1.21 | inactive: 2.84

Some of the entries so far, in markdown.

| SMILES | TEAD-luciferase reporter activity (compound concentration: 200 nM) | TEAD-luciferase reporter activity (compound concentration: 2 uM) | TEAD-luciferase reporter activity (compound concentration: 10 uM) |
| --- | --- | --- | --- |
| CCc1c2c(nc3ccc(OC(=O)N4CCC(N5CCCCC5)CC4)cc13)-c1cc3c(c(=O)n1C2)COC(=O)C3(O)CC (stereo not given) | inactive: -1.57 |  | inactive: 0.638 |
| CC(C)c1nc(CN(C)C(=O)N[C@@H](CCN2CCOCC2)C(=O)N[C@H](CC[C@H](Cc2ccccc2)NC(=O)OCc2cncs2)Cc2ccccc2)cs1 [Cobicistat] |  | inactive: 2.05 |  |
| CCOC(=O)COc1ccc2c(c1)C[C@@H](NC[C@H](O)c1cccc(Cl)c1)CC2 [Amibegron hydrochloride] | inactive: -1.33 | inactive: -0.678 | inactive: 0.405 |
| CC1OCC2(CCN(C)CC2)O1 (stereo not given) | inactive: -0.639 |  | inactive: 0.226 |
| CCCC(=O)Nc1nnc(S(N)(=O)=O)s1 | inactive: -0.639 | inactive: -0.703 | inactive: -0.17 |
| NC(=O)OCC(O)COc1ccc(Cl)cc1 (stereo not given) [Chlorphenesin carbamate] | inactive: 4.13 | inactive: -1.3 | inactive: 0.356 |
| CCCN1CCC(c2nc3c(C(N)=O)cccc3[nH]2)CC1 | inactive: -0.878 | inactive: -1.66 | active: 8.09 |
| COc1cc(/C=C/C=C/C(=O)NCCN2CCC(OC(c3ccccc3)c3ccccc3)CC2)ccc1O | inactive: -1.93 | inactive: 0.586 | inactive: 2 |
| CCc1ccc(C2=CC(C)(C)Sc3ccc(C#Cc4ccc(C(=O)O)cc4)cc32)cc1 | inactive: 1.27 | inactive: -0.945 | inactive: -0.51 |
| COc1ccccc1N1CCN(CC(O)COc2ccc(-c3cc(C#N)c(=O)[nH]c3C)cc2)CC1 (stereo not given) | inactive: -0.513 | inactive: -0.945 | inactive: -1.16 |
| O=C(CN1C(=O)c2ccccc2C1=O)NC1CCN(Cc2ccccc2)CC1 | inactive: -2.34 | inactive: -1.21 | inactive: 2.84 |

Source: the supplement of paper PMC10735217
